Source: publication PMC11567888
No constants are given. Whether binding was seen depends on the method and setting. In cells and extracts the contact can be indirect. Some binding calls cover weakened binding; strength is not graded here.

Molecular target: T1, Caveolin-1 (mouse (endogenous in 4T1)) (UniProt P49817)
T1 sequence: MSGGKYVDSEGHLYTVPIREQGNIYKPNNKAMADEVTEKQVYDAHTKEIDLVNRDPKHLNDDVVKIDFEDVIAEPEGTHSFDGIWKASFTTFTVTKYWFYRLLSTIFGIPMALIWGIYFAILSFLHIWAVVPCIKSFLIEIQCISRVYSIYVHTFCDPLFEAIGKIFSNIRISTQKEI
Experiment: co-IP; 4T1 WT cell lysate in IP lysis buffer (Pierce Co-IP kit), 500 μg protein in 200 μL, precleared; 2 μg Caveolin-1 antibody or normal rabbit IgG overnight at 4 °C, AminoLink Plus coupling resin 4 h at 4 °C, washed thrice; blotted for Cav-1 and ITGα3

binding: binds
B1: Integrin-α3 (protein, UniProt Q62470 33-1053)
chain: FNLDTRFLVVKEAVNPGSLFGYSVALHRQTERQQRYLLLAGAPRDLAVGDDYTNRTGAVYLCPLTAHKDDCERMDISEKSDPDHHIIEDMWLGVTVASQGPAGRVLVCAHRYTKVLWSGLEDQRRMVGKCYVRGNDLQLDPGDDWQTYHNEMCNSNTDYLQTGMCQLGTSGGFTQNTVYFGAPGAYNWKGNSYMIQRKDWDLSEYSYRGSEEQGNLYIGYTVQVGNAILHPTDIITVVTGAPRHQHMGAVFLLKQESGGDLQRKQVLKGTQVGAYFGSAIALADLNNDGWQDLLVGAPYYFERKEEVGGAVYVFMNQAGASFPDQPSLLLHGPSRSAFGISIASIGDINQDGFQDIAVGAPFEGLGKVYIYHSSSGGLLRQPQQIIHGEKLGLPGLATFGYSLSGKMDVDENLYPDLLVGSLSDHIVLLRARPVINILHRTLVARPAVLDPALCTATSCVQVELCFAYNQSAGNPNYRRNITLAYTLEADRDRRPPRLRFARSQSSVFHGFFSMPETHCQTLELLLMDNVRDKLRPIVIAMNYSLPLRMPDRLKLGLRSLDAYPVLNQAQAMENHTEVHFQKECGPDNKCDSNLQMRAAFLSEQLQPLSRLQYSRDTKKLFLSINVTNSPSSQRAGEDAHEALLTLEVPSALLLSSVRPSGTCQANNETILCELGNPFKRNQRMELLIAFEVIGVTLHTRDLPVLLQLSTSSHQDNLQPVLLTLQVDYTLQASLSLMNHRLQSFFGGTVMGEAAMKTAEDVGSPLKYEFQVSPVGDGLAALGTLVLGLEWPYEVTNGKWLLYPTEITIHSNGSWPCQPSGNLVNPLNLTLSDPGVTPLSPQRRRRQLDPGGDQSSPPVTLAAAKKAKSETVLTCSNGRARCVWLECPLPDTSNITNVTVKARVWNSTFIEDYKDFDRVRVDGWATLFLRTSIPTINMENKTTWFSVDIDSELVEELPAEIELWLVLVAVGAGLLLLGLIILLLWKCGFFKRARTRALYEAKRQKAEMKSQPSETERLTDDY
